According to paper doi:10.1101/2020.11.14.382416:
Results are given in words; binding and its absence hold for the method and conditions named. Binding seen in cells or lysates may run through a third protein. A yes stands for co-enrichment or nearness to the bait. Other partners may have been found.

Protein sequences, listed by entry. Tags and fused reporters are not part of them.
UniProt Q86U44, whole entry: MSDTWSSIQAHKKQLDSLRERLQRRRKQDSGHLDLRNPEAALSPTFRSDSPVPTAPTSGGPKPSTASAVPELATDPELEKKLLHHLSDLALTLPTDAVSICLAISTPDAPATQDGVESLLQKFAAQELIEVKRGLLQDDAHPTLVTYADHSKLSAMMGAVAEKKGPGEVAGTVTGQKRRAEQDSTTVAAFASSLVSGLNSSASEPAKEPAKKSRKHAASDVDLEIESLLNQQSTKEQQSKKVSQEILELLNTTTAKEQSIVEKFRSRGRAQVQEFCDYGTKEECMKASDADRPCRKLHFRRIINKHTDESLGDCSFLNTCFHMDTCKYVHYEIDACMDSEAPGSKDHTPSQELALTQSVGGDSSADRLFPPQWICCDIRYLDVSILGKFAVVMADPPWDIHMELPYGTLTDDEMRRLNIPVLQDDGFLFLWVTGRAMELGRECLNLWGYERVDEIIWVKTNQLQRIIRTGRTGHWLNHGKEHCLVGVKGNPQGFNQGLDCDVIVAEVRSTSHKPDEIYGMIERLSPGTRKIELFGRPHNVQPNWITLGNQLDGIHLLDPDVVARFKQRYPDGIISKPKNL

B1: ribosomal RNA processing protein Rrp36 (protein, UniProt Q3UFY0 1-244)
chain: MRKAGSRARAEAEGPHRAMEGGEVTGDRLKADTPDVSFEELLRLQGQGRPKAHKQLVAGNSTRTRSPQQPVCVADKHRPLEMSAKVRVPFLRQVVPISKKVARDPRFDDLSGDYNPEVFDKTYQFLNDIRAKEKQLVKKQLKRHRSGEERDKLQQLLQRMEQQEMAQQERKQQQELRLALKQERRAQAQQGHRPYFLKKSEQRQLALAEKFKELRRSKKLESFLSRKRRRNAGKDRRHLPLSKE
B2: E3 SUMO-protein ligase CBX4 (enzyme, UniProt O55187 1-551)
chain: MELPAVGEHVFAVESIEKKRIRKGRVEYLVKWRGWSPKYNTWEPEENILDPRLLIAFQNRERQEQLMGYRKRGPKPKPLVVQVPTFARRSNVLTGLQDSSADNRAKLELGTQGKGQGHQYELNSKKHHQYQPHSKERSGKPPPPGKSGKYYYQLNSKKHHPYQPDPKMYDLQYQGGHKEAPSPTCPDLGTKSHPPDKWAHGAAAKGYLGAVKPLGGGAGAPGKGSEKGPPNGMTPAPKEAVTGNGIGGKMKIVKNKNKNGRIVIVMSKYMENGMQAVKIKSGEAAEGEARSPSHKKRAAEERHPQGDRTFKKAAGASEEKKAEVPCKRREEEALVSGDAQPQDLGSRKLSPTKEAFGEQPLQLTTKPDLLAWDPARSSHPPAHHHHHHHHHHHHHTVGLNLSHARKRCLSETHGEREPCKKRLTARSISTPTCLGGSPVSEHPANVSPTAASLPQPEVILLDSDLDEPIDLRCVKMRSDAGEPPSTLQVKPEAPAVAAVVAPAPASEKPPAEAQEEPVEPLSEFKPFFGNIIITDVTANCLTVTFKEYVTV
B3: ribosomal RNA processing protein Rrp7a (protein, UniProt Q9D1C9 1-280)
chain: MVSRRKKRKAGGHEESIPSPPGYSAVPVKFSAKQQAPHYLYMRQHRVRQGTQSTWPPDRTLFILNVPPYCTQESLSRCLSCCGTIKTVELQEKPDLAESPTEPKSQFFHPKPVPGFQVAYVVFQKPSGVSAALNLKGPLLVSTESHLVKSGIHKWISDYEDSVLDPEALRMEVDAFMEAYDKKIAEEEAKAKEEEGVPDEEGWVKVTRRGRRPVLPRTEAASLRVLEKEKRKRARKELLNFYAWQHRETKMEHLAQLRKKFEEDKQRIELMRAQRKFRPY
B4: ribosomal RNA processing protein Rrp1 (protein, UniProt P56183 1-494)
chain: MVPGVPLPPEIQLAQRLAGNEQVTRDRALRKLRKYIEARSQRATGGFTPDELLKVWKGLFYCMWMQDKPLQQEELGRTIAQLVHAFHTTEAQHQFLKAFWQTMIREWVGIDRLRLDKFYMLMRMVLSESLKAVKARGWDERQIEQLLELLTTEILNPDSQAPSGVKSHFLEIFLEELAKVGAAELTADQNLQFIDPFCQIAARTKDSQVLHKIIQSIFQTIVEQAPLAIEDIMNELDTQSGEGEASDGDDGEASDGDDGEASDDDDGEASDGGDGDVADSDDSDGADDDDGDVSDGDGGDNDEGDSNKSSEGEQDLQDTPPKKLPAGTAHRAGPEADKEQAWDDEENAGPVLQFDYEALANRLFKLASRQSTPSQNRKRLYKVIQKLRELAGGTFPEDDVPEKAYKKMLEGRRERKKKKKRLPKPQPQNKEAGSEAESSSADPGPGRKRKRNRKTDEKAGQGGPPGKRRKPGARAKGAGAQQPKKRIQSSQSAE
B5: ribosomal RNA processing protein Rrp8 (protein, UniProt Q9DB85 1-457)
chain: MFEEPEWVEAAPAIVGLGAATAQVRPATAPPVKGRKRRHLLATLRALEAASLSQQTPSLPGSDSEEEEEVGRKKRHLQRPSLASVSKEVGKKRKGKCQKQAPSISDSEGKEIRRKCHRQAPPLGGVSAGEEKGKRKCQEYSSLHLTQPLDSVDQTVHNSRTSTATIDPSKPSPESMSPNSSHTLSRKQWRNRQKNKRRHKNKFRPLQTPEQAPPKASIEETEVPPVPKSDSQESRAGALRARMTQRLDGARFRYLNEQLYSGPSSAARRLFQEDPEAFLLYHRGFQRQVKKWPLHPVDRIAKDLRQKPASLVVADFGCGDCRLASSVRNPVHCFDLASLDPRVTVCDMAQVPLEDESVDVAVFCLSLMGTNIRDFLEEANRVLKTGGLLKVAEVSSRFEDIRTFLGAVTKLGFKIIYKDLTNSHFFLFDFEKTGPPRVGPKAQLSGLKLQPCLYKRR
B6: SUMO1-specific protease SENP1 (enzyme, UniProt P59110 1-640)
chain: MDDTADGVKMDAGEVTLVNHGSTFRTHRPPQSGFPEEQLLLSDQQSLPFRQGTLDGSFTCSTRSPAYRPDYHSDNPSSDSFLGSGDVRTFGQSANGQWRNSTPASGSAPQKPRNSRSLCLETRKTSSGLSNTFVGKSNHHCHMSAYEKSFPIKPAPSPSWSGSCRRSLLSPKKTQRRHFSTAEETVQEEEKEIYRQLLQMVTGKQFCVAKPTTHFPLRLSRCLSSNKNSLKDSLLRNGNSCASHVIGSDTSSSGSASILTAQEQLSHSAHSLSSGTPDVAFGSKDSDPHHHLAAPHQPNSLPASNTQSEGSDSVILLKVKESQTPASSPTFFQAELWIKELTSVYDSRARERLRRIEEQKALALQLQNQRLQEQEHAVLDSVELHLRVPLEKEIPVTAAQETRKKSHQLTDSEDEFPEITEEMEKEIKNVFRNGNQDEVLSEAFRLTITRKDIQTLNHLNWLNDEIINFYMNMLMERSKEKGFPSVHAFNTFFFTKLKTAGYQAVKRWTKKVDVFSVDILLVPIHLGVHWCLAVVDFRRKSITYYDSMGGINNEACRILLQYLKQESVDKKRKEFDTNGWQLFSKKSQEIPQQMNGSDCGMFACKYADCITKDRPINFTQQHMPYFRKRMVWEILHRKLL
B7: 60S ribosome subunit biogenesis protein NIP7 homolog (protein, UniProt Q9CXK8 1-180)
chain: MRPLTEEETRVMFEKIAKYIGENLQLLVDRPDGTYCFRLHNDRVYYVSEMMLKLAANISGDKLVSLGTCFGKFTKTHKFRLHVTALDYLAPYAKYKVWVKPGAEQSFLYGNHVLKSGLGRITENTSQYQGVVVYSMADIPLGFGVAAKSTQDCRKVDPMAIVVFHQADIGEYVRHEETLT

molecular target: Flag-tagged METTL3 in TL macrophages (UniProt Q86U44); experiment: affinity purification with mass spectrometry

Row | Molecule | binding
1 | E3 SUMO-protein ligase PIAS1 (from UniProt O88907 1-651) (enzyme) | binds
2 | ribosome-binding protein 1 (Rrbp1) (from UniProt Q99PL5 1-1605) | binds
3 | B1 | binds
4 | B2 | binds
5 | B3 | binds
6 | B4 | binds
7 | B5 | binds
8 | B6 | binds
9 | B7 | binds
